{"source": "patent US20260130973A1", "about": "“COMPOSITIONS AND METHODS FOR DEGRADATION OF LIPOFUSCIN CYCLORETINAL BY MSP1” (THE TEXAS A&M UNIVERSITY SYSTEM, priority 2022, published 2026)", "molecules": {"B1": {"name": "MsP1: peroxidase enzyme from the organism Marasmius scorodonius, SEQ ID NO: 1; recombinant, N-terminal hexa-Histidine tag (protein, listed as Mycetinis scorodonius)", "chain": "MKLFSASVFAAIIASHYASATAHIRAPNVKPRRTNSLLTAPPQQPPLPSAQQAASASSSAGLNLTDIQGDILIGMKKNKELFFFFSITDAATFKAKLGSDILELITSTNQLLAVATQPITAVNVAFSSTGLKALGITDDLKDPVFEAGMLSNAVSDLSDPGTGNWVPGFVGTSVHGVFLLASDTIDNVNTELANIQTILNGSITEIHRLQGEARPGDQQGHEHFGFMDGISNPAVDGFTPPAEIRPGQALIPPGIMLLGEANDTFQNDRPPWAKDGSFLVFRQMQQRAPEFNKFLQDHALNMPNMTSEQGADLLGARIVGRWKSDAPIDLTPLVDDPVLAADNQRNNNFDFSDATNQTRCPFSAHIRKANPRGDLGGINKFPNQHIIRAGIPYGPEVTDAEKASNSSSTDPSLERGLAFVAYQSNIQNGFVFLQKNWVDNTNFFRPGTGVDPLIGTNSRNSGTDAPNTPRVVSGLDPNNATSTIEIGIDFVVSRGGEYFFSPSLSAIRTVLSV", "modifications": "MsP1 amino acid sequence"}}, "conditions": "oxidizing cycloretinal; means and 95% confidence limits; PBS pH 7.4", "note": "At least one read-out could not be matched to a standard name with certainty.", "data": [{"molecule": "B1", "values": [{"measurement": "kcat/Km", "result": "271 ± 6.2", "unit": "M^−1S^−1"}]}]}
